Results are given in words; binding and its absence hold for the method and conditions named. Some results given as binding are weak or reduced against the parent protein; the word gives no strength.
How the values were obtained:
rhPD-L1-his protein = target: T1, rhPD-L1-his protein (monkey, UniProt G7PSE7 19-238); test: ELISA, rhPD-L1-his coated
T1 construct: Bought protein; also called monkey PD-L1 protein; Sino Biological #90251-C08H; not shown: C-terminal His tag

The chains behind the UniProt entries cited, without tags or fusion partners. Where a name states a change or a piece, a line headed by the entry shows the natural chain unless it says otherwise. Residues count along the entry.
UniProt Q9NZQ7: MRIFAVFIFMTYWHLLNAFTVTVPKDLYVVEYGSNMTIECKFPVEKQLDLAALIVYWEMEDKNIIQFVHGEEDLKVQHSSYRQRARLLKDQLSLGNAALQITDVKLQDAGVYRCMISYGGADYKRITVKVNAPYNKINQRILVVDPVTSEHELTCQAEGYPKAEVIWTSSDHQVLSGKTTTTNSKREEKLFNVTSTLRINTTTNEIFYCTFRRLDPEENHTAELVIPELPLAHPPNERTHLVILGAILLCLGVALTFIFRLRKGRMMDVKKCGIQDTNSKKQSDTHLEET
human PD-L1 on cells: residues 19-290 of Q9NZQ7
human PD-L1 protein (hybridoma screening): residues 19-239 of Q9NZQ7

[1] = target: human PD-L1 protein (hybridoma screening) (human) (UniProt Q9NZQ7); test: ELISA, hybridoma screening
[2] = target: human PD-L1 on cells (human) (UniProt Q9NZQ7); test: FACS on ES-2 cells, hybridoma screening

Row | binding (rhPD-L1-his protein) | binding [1] | binding [2] | Binder
1 | binds | – | – | humanized antibody 900339 (antibody, V domains shown, Humanized from the chimeric antibody; Expressed in CHO-S cells; also called humanized PD-L1 monoclonal antibody) VH: QVQLVQSGAEVKKPGASVKVSCKASGYAFTGYTIHWVRQAPGQRLEWMGWFYPGSGTLKYSEKFQGRVTITRDKSLSTAYMELSSLRSEDTAVYYCARHGTGTLMAMDYWGQGTLVTVSS VL: DVVMTQTPLSLSVTPGQPASISCKSSQSLANSYGNTYLSWYLHKPGQSPQLLIYGISNRFSGVPDRFSGSGSGTDFTLKISRVEAEDVGVYYCLQGTHQPPTFGQGTKLEIK
2 | – | binds | binds | 36C06-D8 (antibody, V domains shown, also called hybridoma 36C06/D8; mouse monoclonal antibody against human PD-L1) VH: QVQLQQSGAELVKPGASVKLSCKASGYAFTGYTIHWVKQRSGLGLEWLGWFYPGSGTLKYNEKFKDKATLTADKSSSTVYLELSRLTSEDSAVYFCARHGTGTLMAMDYWGQGTSVTVSS VL: DVVVTQTPLSLPVSFGDQVSISCRSSQSLANSYGNTYLSWYLHKPGQSPQLLIYGISNRFSGVPDRFSGSGSGTDFTLKISTIKPEDLGMYYCLQGTHQPPTFGGGTKLEIK
3 | binds | – | – | chimeric antibody 900289 (antibody, V domains shown, Expressed in CHO-S cells; also called chimeric IgG1-kappa antibody; human-mouse chimeric antibody) VH: QVQLQQSGAELVKPGASVKLSCKASGYAFTGYTIHWVKQRSGLGLEWLGWFYPGSGTLKYNEKFKDKATLTADKSSSTVYLELSRLTSEDSAVYFCARHGTGTLMAMDYWGQGTSVTVSS VL: DVVVTQTPLSLPVSFGDQVSISCRSSQSLANSYGNTYLSWYLHKPGQSPQLLIYGISNRFSGVPDRFSGSGSGTDFTLKISTIKPEDLGMYYCLQGTHQPPTFGGGTKLEIK

Reference: patent US20220089741A1 (HUABO BIOPHARM SHANGHAI, published 2022)
